The exact form of at least one protein or probe is not confirmed. At least one verdict was read from the data and is not stated in words by the source.

The chains behind the UniProt entries cited, without tags or fusion partners. Residues count along the entry.
UniProt Q9UBB5, 150-214: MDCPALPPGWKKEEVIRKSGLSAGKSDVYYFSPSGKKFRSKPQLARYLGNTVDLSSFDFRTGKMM
UniProt Q9UBB5, 150-214 S189A: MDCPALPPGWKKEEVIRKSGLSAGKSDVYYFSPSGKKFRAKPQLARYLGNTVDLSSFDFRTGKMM

The target in data set [1] is MBD2 MBD wild type (Homo sapiens) (UniProt Q9UBB5). The experiment in a line: NMR (15N-HSQC). The note with it: comparison spectrum for S189A; 5-methylcytosine at position 9 of strand 1 and at position 8 of strand 2 (symmetric mCpG); recombinant protein; residues 150-214.
Data set [2] has as its target MBD2 MBD S189A (Homo sapiens) (UniProt Q9UBB5). Description: NMR (15N-HSQC). The note with it: methylation-specific binding mode retained; 5-methylcytosine at position 9 of strand 1 and at position 8 of strand 2 (symmetric mCpG); recombinant protein; residues 150-214.

As to “GAGGCGCTCGGCGGCAG (double strand) [17-bp symmetrically methylated mCpG DNA, unlabeled]”, the binding result in data set [1] and in data set [2] was “binds” each time.

The values are drawn from paper PMC13678254.
